These are yes or no findings as the source states them, for the method shown. Binding seen in cells or lysates may run through a third protein. Some results given as binding are weak or reduced against the parent protein; the word gives no strength. Tags and fused reporters may be left off the sequences shown.

For experiment [1], the target named is T1, ProtA-Noc4p lacking Domain 1 (S. cerevisiae) (UniProt Q06512).
T1 sequence: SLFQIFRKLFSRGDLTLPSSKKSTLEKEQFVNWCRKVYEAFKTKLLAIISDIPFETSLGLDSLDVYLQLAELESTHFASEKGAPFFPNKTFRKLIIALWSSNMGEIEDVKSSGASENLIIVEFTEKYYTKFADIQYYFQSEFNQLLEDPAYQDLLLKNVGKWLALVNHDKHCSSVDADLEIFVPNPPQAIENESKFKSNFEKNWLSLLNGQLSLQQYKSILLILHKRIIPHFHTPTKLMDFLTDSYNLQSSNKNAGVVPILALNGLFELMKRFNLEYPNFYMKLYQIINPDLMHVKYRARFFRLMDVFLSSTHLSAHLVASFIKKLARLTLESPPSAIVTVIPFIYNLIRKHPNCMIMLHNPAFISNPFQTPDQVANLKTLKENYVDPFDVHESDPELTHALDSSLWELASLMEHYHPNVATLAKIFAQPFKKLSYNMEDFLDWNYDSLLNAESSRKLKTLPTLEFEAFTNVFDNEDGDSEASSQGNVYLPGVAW
Nature of the experiment: co-IP; ProtA-Noc4p variants affinity purified on IgG-Sepharose from extracts of yeast ToY489 after 16 h on glucose to shut off wild-type NOC4; buffer A200 (200 mM KCl, 20 mM Tris pH 8.0, 5 mM MgAc, 1 mM DTT), 4°C; Nop14p-HA detected by Western blot with anti-HA.

Experiment [2] addresses T2, ProtA-Noc4p lacking Domain 1 to 5 (the 237 C-terminal amino acids of Noc4p) (S. cerevisiae) (UniProt Q06512).
T2 sequence: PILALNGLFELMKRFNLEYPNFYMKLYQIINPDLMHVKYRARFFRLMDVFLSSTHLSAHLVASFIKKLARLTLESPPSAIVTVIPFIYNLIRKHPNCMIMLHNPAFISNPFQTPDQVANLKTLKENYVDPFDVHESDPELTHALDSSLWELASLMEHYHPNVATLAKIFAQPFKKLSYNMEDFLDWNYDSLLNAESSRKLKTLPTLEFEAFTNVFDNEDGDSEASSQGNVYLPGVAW
The experiment is described as above.

In experiment [3] the target is T3, full length ProtA-Noc4p (S. cerevisiae) (UniProt Q06512).
T3 sequence: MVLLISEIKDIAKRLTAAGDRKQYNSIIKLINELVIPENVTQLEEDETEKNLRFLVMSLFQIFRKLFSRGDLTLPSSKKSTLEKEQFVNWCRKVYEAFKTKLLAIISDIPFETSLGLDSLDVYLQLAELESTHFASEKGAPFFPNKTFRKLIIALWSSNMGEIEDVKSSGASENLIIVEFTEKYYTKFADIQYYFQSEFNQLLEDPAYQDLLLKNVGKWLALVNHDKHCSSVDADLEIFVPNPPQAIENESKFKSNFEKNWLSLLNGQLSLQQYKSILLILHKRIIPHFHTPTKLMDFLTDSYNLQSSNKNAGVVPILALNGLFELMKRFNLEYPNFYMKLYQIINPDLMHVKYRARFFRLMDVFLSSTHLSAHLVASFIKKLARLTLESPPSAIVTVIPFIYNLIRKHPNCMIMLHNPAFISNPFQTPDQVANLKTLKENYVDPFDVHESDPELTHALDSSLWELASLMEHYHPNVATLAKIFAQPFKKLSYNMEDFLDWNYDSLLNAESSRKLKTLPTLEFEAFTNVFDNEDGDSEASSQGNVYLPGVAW
Described as above.

For experiment [4], the target named is T4, Flag-noc4-dD1-D5 (S. cerevisiae) (UniProt Q06512).
T4 sequence: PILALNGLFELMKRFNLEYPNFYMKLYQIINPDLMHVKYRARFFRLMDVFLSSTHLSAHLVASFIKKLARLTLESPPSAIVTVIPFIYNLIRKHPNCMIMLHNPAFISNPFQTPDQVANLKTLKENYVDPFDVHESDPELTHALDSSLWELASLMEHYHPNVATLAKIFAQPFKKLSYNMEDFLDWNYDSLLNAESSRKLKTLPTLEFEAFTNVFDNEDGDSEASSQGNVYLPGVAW
Nature of the experiment: co-IP; Flag-Noc4p variants co-expressed with HIS6-Nop14p in SF21 insect cells (MultiBac baculovirus, 48 h); immunoprecipitated on M2 anti-Flag agarose from the lysate (50 mM Tris/HCl pH 7.5, 100 mM NaCl, 5 mM MgCl2, 0.15% NP40), eluted with Flag-peptide; Western blot with His probe.

The target of experiment [5] is T5, Flag-tagged full length Noc4p (S. cerevisiae) (UniProt Q06512).
T5 sequence: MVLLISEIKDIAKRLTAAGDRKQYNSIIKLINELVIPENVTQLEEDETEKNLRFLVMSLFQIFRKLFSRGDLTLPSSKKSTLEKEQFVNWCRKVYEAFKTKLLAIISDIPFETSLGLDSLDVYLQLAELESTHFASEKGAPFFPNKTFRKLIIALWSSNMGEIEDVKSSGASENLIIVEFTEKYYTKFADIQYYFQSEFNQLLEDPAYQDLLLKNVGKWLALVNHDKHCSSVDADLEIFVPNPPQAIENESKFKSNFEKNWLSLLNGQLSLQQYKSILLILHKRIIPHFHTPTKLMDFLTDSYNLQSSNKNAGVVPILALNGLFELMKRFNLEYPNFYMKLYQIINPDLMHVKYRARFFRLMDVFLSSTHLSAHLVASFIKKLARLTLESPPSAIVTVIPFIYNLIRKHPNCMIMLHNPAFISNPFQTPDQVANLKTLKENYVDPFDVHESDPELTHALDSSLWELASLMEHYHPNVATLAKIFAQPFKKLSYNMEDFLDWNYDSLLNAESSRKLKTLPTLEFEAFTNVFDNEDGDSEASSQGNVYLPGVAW
Described as above.

Experiment [6] deals with T6, Nop14p-HA (S. cerevisiae) (UniProt Q99207).
T6 sequence: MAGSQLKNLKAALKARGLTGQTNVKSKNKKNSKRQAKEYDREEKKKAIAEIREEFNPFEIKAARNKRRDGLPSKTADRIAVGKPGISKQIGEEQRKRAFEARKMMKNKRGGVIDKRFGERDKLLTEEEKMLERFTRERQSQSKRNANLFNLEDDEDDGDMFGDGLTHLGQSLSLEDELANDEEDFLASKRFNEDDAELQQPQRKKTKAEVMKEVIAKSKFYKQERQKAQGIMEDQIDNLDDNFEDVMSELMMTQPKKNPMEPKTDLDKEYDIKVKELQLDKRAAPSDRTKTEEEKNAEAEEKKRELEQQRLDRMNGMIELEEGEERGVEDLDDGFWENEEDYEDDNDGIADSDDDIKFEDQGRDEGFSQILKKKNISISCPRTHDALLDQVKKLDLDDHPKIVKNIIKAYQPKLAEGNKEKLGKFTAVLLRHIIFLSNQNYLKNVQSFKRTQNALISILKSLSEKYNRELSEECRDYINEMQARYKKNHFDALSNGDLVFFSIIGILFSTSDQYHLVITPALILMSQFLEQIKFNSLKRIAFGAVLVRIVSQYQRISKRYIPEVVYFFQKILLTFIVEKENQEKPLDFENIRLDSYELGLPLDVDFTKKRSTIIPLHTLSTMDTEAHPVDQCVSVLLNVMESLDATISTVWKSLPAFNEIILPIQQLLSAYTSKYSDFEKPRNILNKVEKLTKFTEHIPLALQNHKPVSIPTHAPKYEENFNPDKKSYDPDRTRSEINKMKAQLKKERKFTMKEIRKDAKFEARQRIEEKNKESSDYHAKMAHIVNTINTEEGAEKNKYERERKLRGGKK
Nature of the experiment: co-IP; HA-tagged Nop14p immunoprecipitated with anti HA antibodies from the corresponding yeast cell extracts; co-precipitated Noc4p variants analysed (Fig. S1B).

B1: Nop14p-HA (protein, UniProt Q99207 1-810)
chain: MAGSQLKNLKAALKARGLTGQTNVKSKNKKNSKRQAKEYDREEKKKAIAEIREEFNPFEIKAARNKRRDGLPSKTADRIAVGKPGISKQIGEEQRKRAFEARKMMKNKRGGVIDKRFGERDKLLTEEEKMLERFTRERQSQSKRNANLFNLEDDEDDGDMFGDGLTHLGQSLSLEDELANDEEDFLASKRFNEDDAELQQPQRKKTKAEVMKEVIAKSKFYKQERQKAQGIMEDQIDNLDDNFEDVMSELMMTQPKKNPMEPKTDLDKEYDIKVKELQLDKRAAPSDRTKTEEEKNAEAEEKKRELEQQRLDRMNGMIELEEGEERGVEDLDDGFWENEEDYEDDNDGIADSDDDIKFEDQGRDEGFSQILKKKNISISCPRTHDALLDQVKKLDLDDHPKIVKNIIKAYQPKLAEGNKEKLGKFTAVLLRHIIFLSNQNYLKNVQSFKRTQNALISILKSLSEKYNRELSEECRDYINEMQARYKKNHFDALSNGDLVFFSIIGILFSTSDQYHLVITPALILMSQFLEQIKFNSLKRIAFGAVLVRIVSQYQRISKRYIPEVVYFFQKILLTFIVEKENQEKPLDFENIRLDSYELGLPLDVDFTKKRSTIIPLHTLSTMDTEAHPVDQCVSVLLNVMESLDATISTVWKSLPAFNEIILPIQQLLSAYTSKYSDFEKPRNILNKVEKLTKFTEHIPLALQNHKPVSIPTHAPKYEENFNPDKKSYDPDRTRSEINKMKAQLKKERKFTMKEIRKDAKFEARQRIEEKNKESSDYHAKMAHIVNTINTEEGAEKNKYERERKLRGGKK
In the case of B1, the binding result in experiment [1], in experiment [2] and in experiment [3] was “binds” throughout.

B2: HIS6-Nop14p (protein, UniProt Q99207 1-810)
chain: MAGSQLKNLKAALKARGLTGQTNVKSKNKKNSKRQAKEYDREEKKKAIAEIREEFNPFEIKAARNKRRDGLPSKTADRIAVGKPGISKQIGEEQRKRAFEARKMMKNKRGGVIDKRFGERDKLLTEEEKMLERFTRERQSQSKRNANLFNLEDDEDDGDMFGDGLTHLGQSLSLEDELANDEEDFLASKRFNEDDAELQQPQRKKTKAEVMKEVIAKSKFYKQERQKAQGIMEDQIDNLDDNFEDVMSELMMTQPKKNPMEPKTDLDKEYDIKVKELQLDKRAAPSDRTKTEEEKNAEAEEKKRELEQQRLDRMNGMIELEEGEERGVEDLDDGFWENEEDYEDDNDGIADSDDDIKFEDQGRDEGFSQILKKKNISISCPRTHDALLDQVKKLDLDDHPKIVKNIIKAYQPKLAEGNKEKLGKFTAVLLRHIIFLSNQNYLKNVQSFKRTQNALISILKSLSEKYNRELSEECRDYINEMQARYKKNHFDALSNGDLVFFSIIGILFSTSDQYHLVITPALILMSQFLEQIKFNSLKRIAFGAVLVRIVSQYQRISKRYIPEVVYFFQKILLTFIVEKENQEKPLDFENIRLDSYELGLPLDVDFTKKRSTIIPLHTLSTMDTEAHPVDQCVSVLLNVMESLDATISTVWKSLPAFNEIILPIQQLLSAYTSKYSDFEKPRNILNKVEKLTKFTEHIPLALQNHKPVSIPTHAPKYEENFNPDKKSYDPDRTRSEINKMKAQLKKERKFTMKEIRKDAKFEARQRIEEKNKESSDYHAKMAHIVNTINTEEGAEKNKYERERKLRGGKK
Regarding B2, the binding result in experiment [4] and in experiment [5] was “binds” throughout.

B3: ProtA-Noc4p lacking Domain 1 to 5 (the 237 C-terminal amino acids of Noc4p) (domain or fragment, UniProt Q06512 316-552)
chain: PILALNGLFELMKRFNLEYPNFYMKLYQIINPDLMHVKYRARFFRLMDVFLSSTHLSAHLVASFIKKLARLTLESPPSAIVTVIPFIYNLIRKHPNCMIMLHNPAFISNPFQTPDQVANLKTLKENYVDPFDVHESDPELTHALDSSLWELASLMEHYHPNVATLAKIFAQPFKKLSYNMEDFLDWNYDSLLNAESSRKLKTLPTLEFEAFTNVFDNEDGDSEASSQGNVYLPGVAW
On to B3, for which, in experiment [6], the binding result was “binds”.

B4: ProtA-Noc4p lacking Domain 1 (domain or fragment, UniProt Q06512 58-552)
chain: SLFQIFRKLFSRGDLTLPSSKKSTLEKEQFVNWCRKVYEAFKTKLLAIISDIPFETSLGLDSLDVYLQLAELESTHFASEKGAPFFPNKTFRKLIIALWSSNMGEIEDVKSSGASENLIIVEFTEKYYTKFADIQYYFQSEFNQLLEDPAYQDLLLKNVGKWLALVNHDKHCSSVDADLEIFVPNPPQAIENESKFKSNFEKNWLSLLNGQLSLQQYKSILLILHKRIIPHFHTPTKLMDFLTDSYNLQSSNKNAGVVPILALNGLFELMKRFNLEYPNFYMKLYQIINPDLMHVKYRARFFRLMDVFLSSTHLSAHLVASFIKKLARLTLESPPSAIVTVIPFIYNLIRKHPNCMIMLHNPAFISNPFQTPDQVANLKTLKENYVDPFDVHESDPELTHALDSSLWELASLMEHYHPNVATLAKIFAQPFKKLSYNMEDFLDWNYDSLLNAESSRKLKTLPTLEFEAFTNVFDNEDGDSEASSQGNVYLPGVAW
With B4, the binding entry in experiment [6] is “binds”.

B5: full length ProtA-Noc4p (protein, UniProt Q06512 1-552)
chain: MVLLISEIKDIAKRLTAAGDRKQYNSIIKLINELVIPENVTQLEEDETEKNLRFLVMSLFQIFRKLFSRGDLTLPSSKKSTLEKEQFVNWCRKVYEAFKTKLLAIISDIPFETSLGLDSLDVYLQLAELESTHFASEKGAPFFPNKTFRKLIIALWSSNMGEIEDVKSSGASENLIIVEFTEKYYTKFADIQYYFQSEFNQLLEDPAYQDLLLKNVGKWLALVNHDKHCSSVDADLEIFVPNPPQAIENESKFKSNFEKNWLSLLNGQLSLQQYKSILLILHKRIIPHFHTPTKLMDFLTDSYNLQSSNKNAGVVPILALNGLFELMKRFNLEYPNFYMKLYQIINPDLMHVKYRARFFRLMDVFLSSTHLSAHLVASFIKKLARLTLESPPSAIVTVIPFIYNLIRKHPNCMIMLHNPAFISNPFQTPDQVANLKTLKENYVDPFDVHESDPELTHALDSSLWELASLMEHYHPNVATLAKIFAQPFKKLSYNMEDFLDWNYDSLLNAESSRKLKTLPTLEFEAFTNVFDNEDGDSEASSQGNVYLPGVAW
For the molecule B5, in experiment [6], the binding result was “binds”.
